Results as given in the supplement of paper PMC7661543.
± gives the standard deviation of the averaged measurements. The effect of the compound repeats well; differences between the knockouts mostly do not.

Tested on: BT-20
Assay: relative cell number vs DMSO control (72 h) (% of DMSO); higher = less growth inhibition (more cells)
Protocol: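 QMAP-Seq: a pool of 5 breast cancer cell lines (ZR-75-1, SKBR3, HCC-38, MDA-MB-231, BT-20), each carrying 12 doxycycline-inducible Cas9 sgRNA perturbations (11 knockouts plus non-targeting sgNT), was treated with compounds for 72 h at four 10-fold doses (10 nM-10 uM or 1 nM-1 uM range). Barcodes were amplified and sequenced, and cell number was interpolated from 293T spike-in standard curves. The result is expressed as % of the median of DMSO wells. Two biological replicates.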

CC(C)n1cnc2c(NCCc3ccc(O)cc3)nc(-c3csc4ccccc34)nc21 [StemRegenin1]
Conditions	relative cell number
sgRNA knockout: sgATF3, 10 nM	99.1 ± 2.4
sgRNA knockout: sgATF3, 100 nM	113 ± 6.7
sgRNA knockout: sgATF3, 1000 nM	94.7 ± 14
sgRNA knockout: sgATF3, 10000 nM	63.8 ± 11
sgRNA knockout: sgATF4, 10 nM	98.1 ± 13
sgRNA knockout: sgATF4, 100 nM	120 ± 8
sgRNA knockout: sgATF4, 1000 nM	106 ± 5.6
sgRNA knockout: sgATF4, 10000 nM	72.5 ± 8.9
sgRNA knockout: sgATF6, 10 nM	93.3 ± 32
sgRNA knockout: sgATF6, 100 nM	110.9 ± 0.32
sgRNA knockout: sgATF6, 1000 nM	101 ± 14
sgRNA knockout: sgATF6, 10000 nM	64 ± 4.5
sgRNA knockout: sgATG7, 10 nM	101 ± 4.9
sgRNA knockout: sgATG7, 100 nM	109 ± 14
sgRNA knockout: sgATG7, 1000 nM	107 ± 11
sgRNA knockout: sgATG7, 10000 nM	73.2 ± 19
sgRNA knockout: sgERN1, 10 nM	89.2 ± 13
sgRNA knockout: sgERN1, 100 nM	111 ± 5.8
sgRNA knockout: sgERN1, 1000 nM	110 ± 2.9
sgRNA knockout: sgERN1, 10000 nM	72.7 ± 2.6
sgRNA knockout: sgHSF1, 10 nM	87.5 ± 7.7
sgRNA knockout: sgHSF1, 100 nM	99.3 ± 8
sgRNA knockout: sgHSF1, 1000 nM	106 ± 15
sgRNA knockout: sgHSF1, 10000 nM	64.8 ± 10
sgRNA knockout: sgHSF2, 10 nM	102 ± 16
sgRNA knockout: sgHSF2, 100 nM	113 ± 6.5
sgRNA knockout: sgHSF2, 1000 nM	92.1 ± 7.3
sgRNA knockout: sgHSF2, 10000 nM	54.1 ± 25
sgRNA knockout: sgKEAP1, 10 nM	88.9 ± 6.9
sgRNA knockout: sgKEAP1, 100 nM	107 ± 9.4
sgRNA knockout: sgKEAP1, 1000 nM	112 ± 20
sgRNA knockout: sgKEAP1, 10000 nM	59.6 ± 8.5
sgRNA knockout: sgNFE2L2, 10 nM	96.9 ± 21
sgRNA knockout: sgNFE2L2, 100 nM	128 ± 10
sgRNA knockout: sgNFE2L2, 1000 nM	101 ± 23
sgRNA knockout: sgNFE2L2, 10000 nM	69.3 ± 12
sgRNA knockout: sgSLC35F2, 10 nM	92 ± 16
sgRNA knockout: sgSLC35F2, 100 nM	118 ± 7.5
sgRNA knockout: sgSLC35F2, 1000 nM	107 ± 0.88
sgRNA knockout: sgSLC35F2, 10000 nM	63.7 ± 16
sgRNA knockout: sgXBP1, 10 nM	87.75 ± 0.47
sgRNA knockout: sgXBP1, 100 nM	107 ± 1.3
sgRNA knockout: sgXBP1, 1000 nM	98.8 ± 3.2
sgRNA knockout: sgXBP1, 10000 nM	62.8 ± 9.7

O=C1NC(=O)[C@@H](c2cn3c4c(cccc24)CCC3)[C@@H]1c1c[nH]c2ccccc12 [Tivantinib]
Conditions	relative cell number
sgRNA knockout: sgATF3, 10 nM	91.1 ± 3.9
sgRNA knockout: sgATF3, 100 nM	77.1 ± 12
sgRNA knockout: sgATF3, 1000 nM	47.9 ± 10
sgRNA knockout: sgATF3, 10000 nM	36 ± 11
sgRNA knockout: sgATF4, 10 nM	92.5 ± 9.8
sgRNA knockout: sgATF4, 100 nM	89.1 ± 16
sgRNA knockout: sgATF4, 1000 nM	52.3 ± 3.4
sgRNA knockout: sgATF4, 10000 nM	34.1 ± 8.7
sgRNA knockout: sgATF6, 10 nM	89.4 ± 4.4
sgRNA knockout: sgATF6, 100 nM	98.1 ± 8.9
sgRNA knockout: sgATF6, 1000 nM	43.6 ± 2.8
sgRNA knockout: sgATF6, 10000 nM	35.29 ± 0.35
sgRNA knockout: sgATG7, 10 nM	87.4 ± 3
sgRNA knockout: sgATG7, 100 nM	83.1 ± 15
sgRNA knockout: sgATG7, 1000 nM	54.9 ± 7.7
sgRNA knockout: sgATG7, 10000 nM	34.1 ± 1.4
sgRNA knockout: sgERN1, 10 nM	92.5 ± 9.2
sgRNA knockout: sgERN1, 100 nM	92.7 ± 7.3
sgRNA knockout: sgERN1, 1000 nM	46.3 ± 7.3
sgRNA knockout: sgERN1, 10000 nM	30.2 ± 5.5
sgRNA knockout: sgHSF1, 10 nM	92.2 ± 8.8
sgRNA knockout: sgHSF1, 100 nM	89.3 ± 5.8
sgRNA knockout: sgHSF1, 1000 nM	47.8 ± 2
sgRNA knockout: sgHSF1, 10000 nM	29.6 ± 3
sgRNA knockout: sgHSF2, 10 nM	84.3 ± 18
sgRNA knockout: sgHSF2, 100 nM	86.5 ± 1
sgRNA knockout: sgHSF2, 1000 nM	53.2 ± 1.3
sgRNA knockout: sgHSF2, 10000 nM	35.3 ± 11
sgRNA knockout: sgKEAP1, 10 nM	87.1 ± 14
sgRNA knockout: sgKEAP1, 100 nM	84.6 ± 11
sgRNA knockout: sgKEAP1, 1000 nM	41.53 ± 0.31
sgRNA knockout: sgKEAP1, 10000 nM	33.7 ± 11
sgRNA knockout: sgNFE2L2, 10 nM	88.41 ± 0.26
sgRNA knockout: sgNFE2L2, 100 nM	112 ± 15
sgRNA knockout: sgNFE2L2, 1000 nM	55.3 ± 11
sgRNA knockout: sgNFE2L2, 10000 nM	35.6 ± 6.9
sgRNA knockout: sgSLC35F2, 10 nM	93.9 ± 2.3
sgRNA knockout: sgSLC35F2, 100 nM	90.6 ± 24
sgRNA knockout: sgSLC35F2, 1000 nM	46.1 ± 0.54
sgRNA knockout: sgSLC35F2, 10000 nM	35 ± 4.6
sgRNA knockout: sgXBP1, 10 nM	87.6 ± 1.2
sgRNA knockout: sgXBP1, 100 nM	82.48 ± 0.81
sgRNA knockout: sgXBP1, 1000 nM	48.1 ± 2.4
sgRNA knockout: sgXBP1, 10000 nM	30.3 ± 5.5

CC[C@]1(O)C[C@H]2CN(CCc3c([nH]c4ccccc34)[C@@](C(=O)OC)(c3cc4c(cc3OC)N(C=O)[C@H]3[C@@](O)(C(=O)OC)[C@H](OC(C)=O)[C@]5(CC)C=CCN6CC[C@]43[C@@H]65)C2)C1 [Vincristine]
Conditions	relative cell number
sgRNA knockout: sgATF3, 10 nM	24.3 ± 3.3
sgRNA knockout: sgATF3, 100 nM	31.7 ± 8.6
sgRNA knockout: sgATF3, 1000 nM	41.6 ± 2.9
sgRNA knockout: sgATF3, 10000 nM	38.2 ± 0.81
sgRNA knockout: sgATF4, 10 nM	30.1 ± 3.9
sgRNA knockout: sgATF4, 100 nM	31.6 ± 8.1
sgRNA knockout: sgATF4, 1000 nM	39.3 ± 0.56
sgRNA knockout: sgATF4, 10000 nM	39.2 ± 1.9
sgRNA knockout: sgATF6, 10 nM	27 ± 8.1
sgRNA knockout: sgATF6, 100 nM	25.9 ± 12
sgRNA knockout: sgATF6, 1000 nM	33.8 ± 2.5
sgRNA knockout: sgATF6, 10000 nM	38.3 ± 5.2
sgRNA knockout: sgATG7, 10 nM	20.4 ± 5.3
sgRNA knockout: sgATG7, 100 nM	31.4 ± 4.2
sgRNA knockout: sgATG7, 1000 nM	50.6 ± 14
sgRNA knockout: sgATG7, 10000 nM	36.1 ± 5
sgRNA knockout: sgERN1, 10 nM	29.7 ± 2
sgRNA knockout: sgERN1, 100 nM	26.3 ± 2.1
sgRNA knockout: sgERN1, 1000 nM	37.6 ± 20
sgRNA knockout: sgERN1, 10000 nM	41.1 ± 9.5
sgRNA knockout: sgHSF1, 10 nM	25 ± 3
sgRNA knockout: sgHSF1, 100 nM	20.5 ± 5.1
sgRNA knockout: sgHSF1, 1000 nM	39.6 ± 0.68
sgRNA knockout: sgHSF1, 10000 nM	37.5 ± 12
sgRNA knockout: sgHSF2, 10 nM	30.3 ± 2.4
sgRNA knockout: sgHSF2, 100 nM	24.5 ± 8.7
sgRNA knockout: sgHSF2, 1000 nM	28.6 ± 4.9
sgRNA knockout: sgHSF2, 10000 nM	39.2 ± 5.5
sgRNA knockout: sgKEAP1, 10 nM	36.6 ± 6.9
sgRNA knockout: sgKEAP1, 100 nM	30.4 ± 1.4
sgRNA knockout: sgKEAP1, 1000 nM	33 ± 3
sgRNA knockout: sgKEAP1, 10000 nM	43.8 ± 9.5
sgRNA knockout: sgNFE2L2, 10 nM	30.6 ± 3.5
sgRNA knockout: sgNFE2L2, 100 nM	20.8 ± 8
sgRNA knockout: sgNFE2L2, 1000 nM	42.8 ± 23
sgRNA knockout: sgNFE2L2, 10000 nM	46.6 ± 9.7
sgRNA knockout: sgSLC35F2, 10 nM	27.3 ± 2
sgRNA knockout: sgSLC35F2, 100 nM	30.8 ± 8.6
sgRNA knockout: sgSLC35F2, 1000 nM	24.5 ± 1.7
sgRNA knockout: sgSLC35F2, 10000 nM	39.2 ± 21
sgRNA knockout: sgXBP1, 10 nM	24.5 ± 2.8
sgRNA knockout: sgXBP1, 100 nM	31.6 ± 3.5
sgRNA knockout: sgXBP1, 1000 nM	44.2 ± 4.6
sgRNA knockout: sgXBP1, 10000 nM	41 ± 11
